From article PMC9238189
These are yes or no findings as the source states them, for the method shown. In cells and extracts the contact can be indirect. Some entries that bind do so weakly or less than the wild type. For some assays here: Sequences can lack the tags named with a protein. Each block holds one molecule with its values, some of them ahead of it.

The chains behind the UniProt entries cited, without tags or fusion partners.
UniProt Q7KZF4: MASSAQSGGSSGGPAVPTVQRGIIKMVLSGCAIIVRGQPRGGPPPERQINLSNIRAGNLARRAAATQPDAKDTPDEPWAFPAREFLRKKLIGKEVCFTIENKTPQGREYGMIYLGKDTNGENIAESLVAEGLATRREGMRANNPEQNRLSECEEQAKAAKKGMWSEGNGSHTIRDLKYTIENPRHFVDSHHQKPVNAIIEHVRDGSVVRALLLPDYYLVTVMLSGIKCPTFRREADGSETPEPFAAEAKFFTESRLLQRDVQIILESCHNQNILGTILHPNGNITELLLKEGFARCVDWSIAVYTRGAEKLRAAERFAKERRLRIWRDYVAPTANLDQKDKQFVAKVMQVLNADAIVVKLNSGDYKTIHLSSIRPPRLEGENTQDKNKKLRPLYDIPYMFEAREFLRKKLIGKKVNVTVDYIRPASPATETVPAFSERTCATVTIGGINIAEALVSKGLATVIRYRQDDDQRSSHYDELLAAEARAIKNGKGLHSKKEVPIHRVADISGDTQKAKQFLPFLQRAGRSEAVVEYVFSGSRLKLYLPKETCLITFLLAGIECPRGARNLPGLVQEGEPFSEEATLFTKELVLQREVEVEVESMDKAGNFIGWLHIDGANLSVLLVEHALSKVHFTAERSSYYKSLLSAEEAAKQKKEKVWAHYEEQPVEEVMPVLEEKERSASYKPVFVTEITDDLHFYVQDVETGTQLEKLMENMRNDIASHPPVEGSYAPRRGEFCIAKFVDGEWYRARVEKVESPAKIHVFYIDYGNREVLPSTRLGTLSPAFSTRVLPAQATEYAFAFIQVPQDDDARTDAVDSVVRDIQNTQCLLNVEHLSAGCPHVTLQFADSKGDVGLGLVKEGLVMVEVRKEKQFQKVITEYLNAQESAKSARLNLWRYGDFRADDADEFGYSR

What was measured:
[1] = molecular target: T1, ZsGreen1-tagged tTmod3-C (UniProt Q9NYL9); test: co-IP; anti-ZsGreen1 immunoprecipitate of ZsGreen1-tTmod3-C from U87-MG cells, immunoblot for SND1
T1 sequence: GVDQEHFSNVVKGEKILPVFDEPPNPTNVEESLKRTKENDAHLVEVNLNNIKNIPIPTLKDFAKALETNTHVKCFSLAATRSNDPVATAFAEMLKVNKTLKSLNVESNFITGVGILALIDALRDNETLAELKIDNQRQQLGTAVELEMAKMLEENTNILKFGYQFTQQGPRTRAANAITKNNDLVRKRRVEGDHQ

[2] = molecular target: T2, Asparagine endopeptidase (AEP) (human (endogenous in U87-MG and A172)) (UniProt Q99538); test: co-IP; endogenous co-IP and western blotting in U87-MG and A172 cells; whole-cell extracts, Protein A/G beads, low-salt lysis buffer washes
T2 sequence: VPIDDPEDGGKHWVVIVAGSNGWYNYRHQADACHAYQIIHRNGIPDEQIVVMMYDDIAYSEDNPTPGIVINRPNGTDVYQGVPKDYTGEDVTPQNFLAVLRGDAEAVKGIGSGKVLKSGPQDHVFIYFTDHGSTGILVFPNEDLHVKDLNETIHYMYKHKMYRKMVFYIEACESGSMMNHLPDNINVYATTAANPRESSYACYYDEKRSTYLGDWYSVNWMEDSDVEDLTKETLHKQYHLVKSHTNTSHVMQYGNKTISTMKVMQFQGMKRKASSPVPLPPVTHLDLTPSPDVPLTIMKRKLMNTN

[3] = molecular target: Flag-tagged SND1 (human) (UniProt Q7KZF4); test: co-IP; Flag-tagged SND1 and ZsGreen1-tTmod3-C (or ZsGreen1) transiently expressed in HEK293 cells, immunoblotting with anti-ZsGreen1 antibody
[4] = molecular target: T3, Asparagine endopeptidase (AEP) (UniProt Q99538); test: co-IP; Flag-tagged truncations of Tmod3 and AEP in HEK293 cells, western blotting
T3 sequence: T2 sequence

[5] = molecular target: T4, Asparagine endopeptidase (AEP) (mouse (endogenous in MEFs)) (UniProt O89017); test: co-IP; AEP immunoprecipitated from MEFs, immunoblot for Tmod3
T4 sequence: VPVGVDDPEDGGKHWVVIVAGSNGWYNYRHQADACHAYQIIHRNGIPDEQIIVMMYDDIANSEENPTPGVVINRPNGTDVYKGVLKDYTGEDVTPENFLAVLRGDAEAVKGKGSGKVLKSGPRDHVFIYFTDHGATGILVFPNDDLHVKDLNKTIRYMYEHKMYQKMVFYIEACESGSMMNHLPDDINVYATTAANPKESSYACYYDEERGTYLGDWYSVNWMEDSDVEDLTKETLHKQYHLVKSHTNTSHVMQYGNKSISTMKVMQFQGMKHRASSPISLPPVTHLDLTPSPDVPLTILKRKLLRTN

binding [1]: binds
Molecule: Staphylococcal Nuclease And Tudor Domain Containing 1 (SND1) (from UniProt Q7KZF4 1-910)

binding [2]: binds
B1: Tropomodulin-3 (Tmod3) (protein, UniProt Q9NYL9 1-352)
chain: MALPFRKDLEKYKDLDEDELLGNLSETELKQLETVLDDLDPENALLPAGFRQKNQTSKSTTGPFDREHLLSYLEKEALEHKDREDYVPYTGEKKGKIFIPKQKPVQTFTEEKVSLDPELEEALTSASDTELCDLAAILGMHNLITNTKFCNIMGSSNGVDQEHFSNVVKGEKILPVFDEPPNPTNVEESLKRTKENDAHLVEVNLNNIKNIPIPTLKDFAKALETNTHVKCFSLAATRSNDPVATAFAEMLKVNKTLKSLNVESNFITGVGILALIDALRDNETLAELKIDNQRQQLGTAVELEMAKMLEENTNILKFGYQFTQQGPRTRAANAITKNNDLVRKRRVEGDHQ

binding [3]: binds
B2: ZsGreen1-tTmod3-C (domain or fragment, UniProt Q9NYL9 158-352)
chain: T1 sequence

binding [4]: binds
B3: Flag-tagged N-terminal truncated Tmod3 (amino acids 158-352), tTmod3-C (domain or fragment, UniProt Q9NYL9 158-352)
chain: T1 sequence

binding [5]: binds
B4: Tropomodulin-3 (Tmod3) (protein, UniProt Q9JHJ0 1-352)
chain: MALPFRKDLGDYKDLDEDELLGKLSESELKQLETVLDDLDPENALLPAGFRQKNQTSKSATGPFDRERLLSYLEKQALEHKDRDDYVPYTGEKKGKIFIPKQKPAQTLTEETISLDPELEEALTSASDTELCDLAAILGMHNLIADTPFCDVLGSSNGVNQERFPNVVKGEKILPVFDEPPNPTNVEESLKRIRENDARLVEVNLNNIKNIPIPTLKDFAKTLEANTHVKHFSLAATRSNDPVAVAFADMLKVNKTLKSLNMESNFITGAGVLALIDALRDNETLMELKIDNQRQQLGTSVELEMAKMLEENTNILKFGYQFTQQGPRTRAANAITKNNDLVRKRRIEGDHQ
